## Assay results

The results are deposited in PubChem (AID1159506; NCATS, 2015).

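Genome-wide siRNA knockdown in TC32 Ewing sarcoma cells, comparing luciferase light from an NR0B1-promoter reporter with a CMV-promoter reporter 48 hours after transfection.
Each siRNA was applied at 20 nM.
A z-score of the log NR0B1-over-CMV signal, less the median of siRNAs with the same seed; more negative means a stronger specific loss of the NR0B1 reporter.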

This is part of the screen; most of the strongest results are not listed here.
Sequences are the guide (antisense) strand, without overhang.

siRNA	gene	seed-corrected z-score
UUUUCUGAUAGCAAGUUGG	OR10R2	-0.1219
UCGGUUCAGAUCGUCUUCC	EPS15L1	-0.3747
UCUUGAAACAAGUAAUGAC	TSPAN6	0.3463
AUCUGGAUCAUCAUAAGCA	EIF2S2P7	-0.3466
UUCUUGCACAUAUGUUUUC	PRELID3BP10	0.4832
AAAGCGACAGGGUUGAGUG	NR2E1	-0.4761
UCACGUACAAUCUGAUUCC	C9orf3	-1.716
AUAGGCAUAAGGCACUUCC	CHIA	-1.079
UAUGACAUUGGGCGGCAGC	CITED2	0.1296
UUUACAUCCAGACUGAUGG	SLC13A4	-0.3493
AAUACUAUCAAUCUCGUGG	KCNAB2	-0.4329
UAUCUUCUUAACAUGAUUC	ZNF654	-0.4039
AAGGUUAGAACCAUGUUGG	NDUFS4	0.6411
AUAGUAUAGGCAUUGCUUC	GPR19	-0.5285
UUCCUGGGAAUCACGGUCU	CNDP2	0.07336
AUAAUUCACGUAGUUGUUC	KHDRBS2	1.485
AAUACGUCAAACAGAAUCC	GRWD1	0.5127
UGUUCAUAAAGUCAUAGGG	TNRC6A	-0.07887
UGAUUGAAUUGUGAUAGCC	FAM208A	-1.206
AAGUCUCACAGAUACAUCC	SOGA3	0.4584
UGAGGUCCAAGUUAACCAC	PARVB	0.1547
UUUGCAAACUCGAUGAACU	CACFD1	0.03498
AAACUGCUCGAAAUAUUGC	MSI2	-0.3635
UGCAGUGAUGGAGUCCUUG	HCG22	-0.01065
AAUAUGUCUCUGUACGUUU	IDNK	-0.4192
UGAUGAUCCUUGAACACCC	IL19	-1.327
UAUUCAUUCUGUCAUUAGG	SIVA1	-0.451
UUGGUACCCAGGUGGAAAG	FCGR3A	-0.6776
UUAAGAAGCAUCCCACACC	C3P1	-0.3329
UCUCAUAGGACUCAUAUGG	SMURF1	-0.122
UUAAGUAGACUCUUGCUGC	TMEM189	-0.4035
UUAUAUCCUAUGAAUGAGC	AKT3	0.1625
AAAUCGAUCCUUGCAGAGC	AMFR	0.6465
AACUAUCACCUAUCUGUUG	ATG10	-0.5086
UCUGUCACCAUGUUAAUAG	EIF4A1	2.066
UGAAGUUCCACUGUGAAAC	ITGA5	0.2389
AAAGCUGUGGGUAGGUCCC	PRR36	0.003198
AACACGUUACCGUAGAGCG	POU3F1	-0.3473
UCCAUAUCCAUAUCCAUAC	RBM3	0.1793
AUAGUUCAUCCUUAUGAGC	KCNH5	-0.1852
UUAGAUCUAUCUUGAAUAG	MRPL50	-0.3979
UCAUGUAACUUUUAGCUUG	ANKS3	0.0917
AUCUGGGUACGAUAGUUGC	TMED4	1.046
UCAGGUCAGACGUGAAGAG	HTR6	4.152
UUCGUCUUCACGGUGCUGC	CELA2B	-0.352
UAGGUACUCAAAUCAAGCC	TRIM44	0.1577
UCUGAUAAGAUGAUUUUCC	TEAD1	0.6782
UUCACCACCAAAUCCAUUC	IFT27	-0.1725
UUGGUAACAUGAAUAUUGC	CDH24	0.3151
UAUUUACCAACAUAUGAGG	OR2B3	0.7225
UAUACUUAUCACUUAACUC	ZNF639	-0.1579
UUUGCUGAGAGAUGGUAGC	ANKUB1	0.2618
UCCAGGUAAACAAAUAUCG	PDCL3	-0.4285
UUUGAUGCAGGAGAUACUG	DDX24	0.5302
AUUCUUGAGAGCUUUUUCC	GNRHR	0.01765
UAUUGAAAAACUGACACCA	RPS27L	0.1461
AAAAUACCAGCAACGAUGG	TSPAN5	0.2764
UCAUUGAUCAGCCCGAUGC	BPIFB1	1.401
UAAGUGGAAACAGUCUAAG	PARK2	0.5077

The last 4 entries again:

For UAUUGAAAAACUGACACCA against RPS27L the result was seed-corrected z-score 0.1461.
For AAAAUACCAGCAACGAUGG against TSPAN5 the result was seed-corrected z-score 0.2764.
For UCAUUGAUCAGCCCGAUGC against BPIFB1 the result was seed-corrected z-score 1.401.
For UAAGUGGAAACAGUCUAAG against PARK2 the result was seed-corrected z-score 0.5077.